Source: PubChem BioAssay AID328 (DTP/NCI, 2004)
The list does not hold the whole screen: it is rich in T/C values a quarter to a half above the control, in often repeated tests (any T/C) and in doses without a T/C. Other doses and runs of a compound stand elsewhere. T/C gives the treated animals as a percentage of the vehicle group. Some entries give survivors of the animals treated and no T/C: the source holds a T/C of zero for them, seemingly a mark for toxic or unscored doses. Some doses without a T/C left all or most animals alive at the check, yet need not have been tolerated: the source hardly ever lists a survival T/C far under the control, and the zero likely stands for such cases as well. Survivors were counted at the toxicity check, usually on the fifth day, unless a day is given; later deaths do not show. Schedule codes are those of the source, read here as Q, the interval in days (D) or hours (H), X, the number of doses. Some entries hold several experiments; their values stand side by side, smallest first. Where survival is the endpoint, the PubChem record calls one and a half times the control and up active, and a quarter to a half above the control has no call in these data; cut-offs in other NCI protocols can differ. Some T/C values are followed by the survivors on the day toxicity was checked, most often the fifth; where none is given, no animal had died by that day. Brackets with × stand for listed records that agree.

Tested on: BDF1 mice, P388 leukemia ip, median survival T/C
Test: NCI In Vivo Anticancer Drug Screen. Data for tumor model P388 Leukemia (intraperitoneal) in B6D2F1 (BDF1) mice
Conditions: T/C endpoint: median survival time, vehicle: Klucel (hydroxypropylcellulose) (HPC), higher T/C = longer survival
In short: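 Transplantable tumour in mice; compound vs vehicle dosing; survival scored; ratio of treated to control reported.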

[1] = dose: 50.0 mg/kg/injection, schedule: Q01DX009 (ip)

## O=c1cnn(C2OC(CO)C(O)C2O)c(=O)[nH]1 (stereo not drawn)
dose: 25.0 mg/kg/injection, schedule: Q01DX009 (ip)
  T/C: 126 % of control
dose: 50.0 mg/kg/injection, schedule: Q01DX001 (ip), evaluated on day 30
  T/C: 88, 93, 95 (3×), 96 (2×), 97, 98 (3×), 99, 100 (3×), 101, 102, 103, 104 (2×), 105 (4×), 109 (2×), 110, 117, 122 % of control
dose: 50.0 mg/kg/injection, schedule: Q01DX001 (ip), evaluated on day 35
  T/C: 87 and 120 % of control
dose: 50.0 mg/kg/injection, schedule: Q01DX001 (ip)
  survivor count: 3 of 3
dose: 50.0 mg/kg/injection, schedule: Q01DX005 (ip), evaluated on day 30
  T/C: 90 [5 of 6 alive], 91, 92, 93, 100 (2×), 102, 103 (2×), 105 (3×), 106 (3×), 106 [5 of 6 alive], 108, 109 (2×), 112 (3×), 113, 116, 117, 120 (2×), 121, 122 (2×), 129 (2×), 141 % of control
dose: 50.0 mg/kg/injection, schedule: Q01DX005 (ip), evaluated on day 35
  T/C: 125 % of control
dose: 50.0 mg/kg/injection, schedule: Q01DX005 (ip)
  survivor count: 3 of 3
[1]
  T/C: 91, 93, 96, 100 (2×), 102, 103 (2×), 104 (2×), 106, 107, 108 (2×), 109 (2×), 110, 111, 113 (2×), 115 (3×), 117, 118, 119, 120, 122 (2×), 125, 128 [5 of 6 alive], 133, 136, 188 % of control
  survivor count: 6 of 6
dose: 50.0 mg/kg/injection, schedule: Q04DX002 (ip), evaluated on day 30
  T/C: 93, 94, 99 (2×), 101 (2×), 101 [5 of 6 alive], 102 [5 of 6 alive], 103 (3×), 105 (5×), 106, 107 (4×), 108, 109 (3×), 110, 111, 113 (2×), 117, 118 % of control
dose: 50.0 mg/kg/injection, schedule: Q04DX002 (ip), evaluated on day 35
  T/C: 106 % of control [5 of 6 alive]
dose: 50.0 mg/kg/injection, schedule: Q04DX002 (ip)
  survivor count: 3 of 3 and 6 of 6
dose: 50.0 mg/kg/injection, schedule: Q04DX003 (ip), evaluated on day 30
  T/C: 92, 93 (2×), 99, 101 (2×), 102, 103, 104, 105 (3×), 105 [2 of 3 alive], 106 (2×), 107 (3×), 108 (2×), 109 (2×), 110, 111 (2×), 112 (2×), 115, 116 (2×), 125, 135 % of control
dose: 50.0 mg/kg/injection, schedule: Q04DX003 (ip), evaluated on day 35
  T/C: 100 and 102 % of control
dose: 50.0 mg/kg/injection, schedule: Q04DX003 (ip)
  survivor count: 2 of 6 and 3 of 3
dose: 100.0 mg/kg/injection, schedule: Q01DX001 (ip), evaluated on day 30
  T/C: 89, 90, 92, 94, 95 (2×), 96, 98 (2×), 100 (4×), 101, 102, 103, 104 (4×), 105, 107, 109 (2×), 110, 111, 117, 121 % of control
dose: 100.0 mg/kg/injection, schedule: Q01DX001 (ip), evaluated on day 35
  T/C: 108 and 120 % of control
dose: 100.0 mg/kg/injection, schedule: Q01DX001 (ip)
  survivor count: 3 of 3 and 6 of 6
dose: 100.0 mg/kg/injection, schedule: Q01DX005 (ip), evaluated on day 30
  T/C: 92, 93, 95, 96 (2×), 100 (2×), 102, 104 (2×), 105 (4×), 107 (2×), 108, 109, 110, 112, 113 (2×), 115 (2×), 118, 119, 120, 121, 122, 122 [5 of 6 alive], 133, 134 (2×), 145 % of control
dose: 100.0 mg/kg/injection, schedule: Q01DX005 (ip), evaluated on day 35
  T/C: 125 % of control
dose: 100.0 mg/kg/injection, schedule: Q01DX009 (ip)
  T/C: 92 (2×), 93, 96, 97, 99, 100, 103, 104, 105 (3×), 106, 107 (3×), 107 [2 of 3 alive], 108 (4×), 109, 110, 112, 113 (3×), 114, 116, 117, 118, 119, 124, 127, 142 % of control
dose: 100.0 mg/kg/injection, schedule: Q04DX002 (ip), evaluated on day 30
  T/C: 90, 97, 99 (2×), 100 (2×), 103, 105 (2×), 106 (4×), 107 (3×), 108 (4×), 111 (2×), 112 (2×), 113 (3×), 115, 117, 118, 121, 128 % of control
dose: 100.0 mg/kg/injection, schedule: Q04DX002 (ip), evaluated on day 35
  T/C: 114 % of control
dose: 100.0 mg/kg/injection, schedule: Q04DX002 (ip)
  survivor count: 6 of 6
dose: 100.0 mg/kg/injection, schedule: Q04DX003 (ip), evaluated on day 30
  T/C: 87, 87 [2 of 3 alive], 88, 94, 97, 97 [5 of 6 alive], 98 (3×), 103 (2×), 104 (2×), 105, 106 (2×), 107 (2×), 108 (2×), 109 (4×), 110, 112 (3×), 114, 117, 121, 130 [5 of 6 alive], 140, 147 % of control
dose: 100.0 mg/kg/injection, schedule: Q04DX003 (ip), evaluated on day 35
  T/C: 102 and 107 % of control
dose: 200.0 mg/kg/injection, schedule: Q01DX001 (ip), evaluated on day 30
  T/C: 91 (2×), 95, 95 [5 of 6 alive], 96, 97, 98, 99, 100 (5×), 101, 102 (2×), 104, 105, 107 (3×), 108, 109 (2×), 113 (2×), 115, 120 % of control (2×)
dose: 200.0 mg/kg/injection, schedule: Q01DX001 (ip), evaluated on day 35
  T/C: 95 and 107 % of control
